Measurements as given in publication PMC4877050.
No constants are given. Whether binding was seen depends on the method and setting. Binding seen in cells or lysates may run through a third protein. Some results given as binding are weak or reduced against the parent protein; the word gives no strength.

Protein sequences, listed by entry. Tags and fused reporters are not part of them. Lines headed by an entry give the natural chain unless they say otherwise; changes in a name come on top. Chains listed by the source or under a name are the forms on record and can include a tag or linker. Residues count along the entry.
UniProt Q07813: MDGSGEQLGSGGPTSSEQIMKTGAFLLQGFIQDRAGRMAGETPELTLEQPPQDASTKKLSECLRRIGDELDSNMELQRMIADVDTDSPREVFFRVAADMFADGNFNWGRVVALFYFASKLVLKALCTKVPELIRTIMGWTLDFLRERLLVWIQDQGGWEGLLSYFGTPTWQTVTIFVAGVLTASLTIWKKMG
wild-type Bcl-xL, GFP fusion protein derived from His-tagged ΔC Bcl-xL (Q07817, residues 1-209): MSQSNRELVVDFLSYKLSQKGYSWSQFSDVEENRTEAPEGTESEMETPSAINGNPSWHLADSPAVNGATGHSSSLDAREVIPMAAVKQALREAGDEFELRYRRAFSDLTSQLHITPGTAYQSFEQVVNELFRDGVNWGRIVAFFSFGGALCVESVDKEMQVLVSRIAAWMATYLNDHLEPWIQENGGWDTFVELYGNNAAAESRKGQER

Target: Bax (mouse (endogenous in TKPTS)) (UniProt Q07813)
Assay: co-IP; Bax (from untreated or tBid-adenovirus-treated TKPTS cells) held on anti-Bax antibody on Protein-G-Dynabeads; TKPTS and Bcl-xL-transfected TAL cells mixed and homogenised, post-nuclear fraction adjusted to 150 mM NaCl, 50 mM Tris pH 7.4, 4 °C, 18 h; bound proteins blotted for Bcl-xL and Bax

binding | Substance
binds | S73D Bcl-xL, GFP fusion protein derived from His-tagged ΔC Bcl-xL (from UniProt Q07817-1 1-209) (domain or fragment)
binds | wild-type Bcl-xL, GFP fusion protein derived from His-tagged ΔC Bcl-xL (from UniProt Q07817-1 1-209) (domain or fragment)
